# Assay results from the supplement of paper PMC9135407.
# Several values for one entry are separate records, joined by “and”; a condition that tells them apart may be missing. Equal values may be shown once. Where a name gives a salt, the structure may show the parent alone. ± gives the standard deviation of the averaged measurements. The list shows a part of the results. Baselines shift from plate to plate; read single values as rough.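 Culture-activated primary human stellate myofibroblasts, where regained lipid droplets signal inactivation. Value: share of Hoechst-counted cells above a per-plate Bodipy cutoff, in duplicate wells, with DMSO negative and nortriptyline positive controls on each plate. Hits: a control-normalized score above the plate's top-tenth-percentile nortriptyline wells, or one of a plate's three best wells. Final well concentrations are not given.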
# System: primary human hepatic stellate cells (donor 1)
# Test: percent Bodipy-positive cells; higher = more lipid droplet accumulation
# Conditions: 48 h
# [1] = library stock concentration: 3.33 mM
# [2] = library stock concentration: 10 mM
# [3] = library stock concentration: 1 mM
compound,measurement,setting,value
COc1cc(C2Oc3cc([C@H]4Oc5cc(O)cc(O)c5C(=O)[C@@H]4O)ccc3OC2CO)ccc1O (stereo partly drawn) [Silymarin],percent Bodipy-positive cells,[1],7.53 ± 0.67%
same,percent Bodipy-positive cells,[2],23.6 ± 9.7%
O=C1Nc2ccc(-c3cccnc3)cc2/C1=C/c1ccc[nH]1 [JAK3 Inhibitor VI],percent Bodipy-positive cells,[1],16.1 ± 4.6%
O=c1cc(-c2ccccc2)oc2cc(O)c(O)c(O)c12 [Baicalein],percent Bodipy-positive cells,[3],16.7 ± 2.7%
same,percent Bodipy-positive cells,[1],4.52 ± 1.8%
CC(C)CCCC(C)N (stereo not drawn) [Octodrine],percent Bodipy-positive cells,library stock concentration: 15.5 mM,5.2 ± 1.8%
Br.Br.CN(CCc1ccc(Cl)c(Cl)c1)CCN1CCCC1 [BD 1008 dihydrobromide],percent Bodipy-positive cells,[2],57.8 ± 3.8%
N[C@@H](CCCC(=O)O)C(=O)O [L-2-aminoadipic acid],percent Bodipy-positive cells,[2],59.6 ± 0.68%
CN(C)CCn1nnnc1SCC1=C(C(=O)O)N2C(=O)[C@@H](NC(=O)Cc3csc(N)n3)[C@H]2SC1 [Cefotiam hydrochloride],percent Bodipy-positive cells,,39.6 ± 27%
O=C(O)Cc1cccc(OCCCN(Cc2cccc(C(F)(F)F)c2Cl)CC(c2ccccc2)c2ccccc2)c1 [GW 3965 hydrochloride],percent Bodipy-positive cells,[2],9.47 ± 2.8%
O=C(O)Cc1cccc(OCCCN(Cc2cccc(C(F)(F)F)c2Cl)CC(c2ccccc2)c2ccccc2)c1,percent Bodipy-positive cells,[1],20.1 ± 3.5%
same,percent Bodipy-positive cells,[2],26.57 ± 0.08%
"O=c1cc(-c2ccccc2)[nH]c2nc(Cl)ccc12 [7-Chloro-4-hydroxy-2-phenyl-1,8-naphthyridine]",percent Bodipy-positive cells,[2],40.8 ± 3.3%
O=c1[nH]c(=O)c2nc3ccccc3nc2[nH]1 [Alloxazine],percent Bodipy-positive cells,[2],35.3 ± 9.5%
N#C/C(=C\c1ccc(O)c(O)c1)C(=O)NCCc1ccccc1 [Tyrphostin AG 698],percent Bodipy-positive cells,[2],31 ± 6.4%
CC(=O)O[C@H]1C[C@@]2(C)[C@@H](C[C@@H](O)[C@H]3[C@@]4(C)CC[C@@H](O)[C@@H](C)[C@@H]4CC[C@@]32C)/C1=C(\CCC=C(C)C)C(=O)O [Fusidic acid sodium],percent Bodipy-positive cells,[2],38.3 ± 11%
CC(=O)O[C@H]1C[C@@]2(C)[C@@H](C[C@@H](O)[C@H]3[C@@]4(C)CC[C@@H](O)[C@@H](C)[C@@H]4CC[C@@]32C)/C1=C(\CCC=C(C)C)C(=O)O [Fusidic acid sodium salt],percent Bodipy-positive cells,,25.9 ± 4.2%
CC(=O)O[C@H]1C[C@@]2(C)[C@@H](C[C@@H](O)[C@H]3[C@@]4(C)CC[C@@H](O)[C@@H](C)[C@@H]4CC[C@@]32C)/C1=C(\CCC=C(C)C)C(=O)O [Fusidic acid],percent Bodipy-positive cells,[2],12.5 ± 1.1%
CC(=O)N[C@@H](CS)C(=O)O [N-Acetyl-L-Cysteine],percent Bodipy-positive cells,[2],52.4 ± 12%
CC(=O)N[C@@H](CS)C(=O)O [Acetylcysteine],percent Bodipy-positive cells,[1],9.41 ± 3.7%
same,percent Bodipy-positive cells,[2],15.1% and 10.7%
same,percent Bodipy-positive cells,library stock concentration: 12.3 mM,2.16 ± 0.46%
C[C@]1(c2nc3c(C(N)=O)cccc3[nH]2)CCCN1 [Veliparib],percent Bodipy-positive cells,library stock concentration: 80 uM,28 ± 19%
same,percent Bodipy-positive cells,library stock concentration: 400 uM,31.4 ± 16%
same,percent Bodipy-positive cells,library stock concentration: 2 mM,33.5 ± 23%
same,percent Bodipy-positive cells,[2],33.5 ± 24%
C[C@]1(c2nc3c(C(N)=O)cccc3[nH]2)CCCN1 [Veliparib (ABT-888)],percent Bodipy-positive cells,[1],9.95 ± 7.4%
same,percent Bodipy-positive cells,[2],25.6 ± 5.1%
"CCCCCC(=O)CC[C@H]1C(=O)C[C@H](O)[C@@H]1C/C=C\CCCC(=O)O [13,14-dihydro-15-keto Prostaglandin D2]",percent Bodipy-positive cells,[3],8.37 ± 1.1%
O=C(O)CCC/C=C\C[C@H]1C(=O)C[C@@H](O)[C@@H]1/C=C/[C@@H](O)Cc1ccccc1 [16-phenyl tetranor Prostaglandin E2],percent Bodipy-positive cells,[3],17.9 ± 6.3%
CNCCCC12CCC(c3ccccc31)c1ccccc12 [Maprotilline HCl],percent Bodipy-positive cells,[2],97.36 ± 0.96%
CNCCCC12CCC(c3ccccc31)c1ccccc12 [Maprotiline HCl],percent Bodipy-positive cells,[1],59 ± 5.6%
CCc1c(O)cc(O)c(C(=O)c2ccc(OCCN3CCOCC3)c(OC)c2)c1CC(=O)N(CCOC)CCOC,percent Bodipy-positive cells,[1],60.9 ± 6.9%
same,percent Bodipy-positive cells,[2],63.2 ± 1.2%
CC[C@H]1OC(=O)C[C@@H](O)[C@H](C)[C@@H](O[C@@H]2O[C@H](C)[C@@H](O)[C@H](N(C)C)[C@H]2O)[C@@H](CCN2C[C@H](C)C[C@H](C)C2)C[C@@H](C)C(=O)/C=C/C(C)=C/[C@@H]1CO[C@@H]1O[C@H](C)[C@@H](O)[C@@H](OC)[C@H]1OC [Tilmicosin],percent Bodipy-positive cells,library stock concentration: 2.3 mM,24.8 ± 5.8%
same,percent Bodipy-positive cells,[1],30.4 ± 3.6%
same,percent Bodipy-positive cells,[2],83.8 ± 0.71%
O=C1Cc2c([nH]c3ccc(Br)cc23)-c2ccccc2N1 [Kenpaullone],percent Bodipy-positive cells,[3],10.2 ± 1.3%
same,percent Bodipy-positive cells,[1],19.9 ± 1.8%
Cc1coc2c1C(=O)C(=O)c1c-2ccc2c1CCCC2(C)C [Tanshinone iia],percent Bodipy-positive cells,library stock concentration: 6.8 mM,36.9 ± 3%
Cc1coc2c1C(=O)C(=O)c1c-2ccc2c1CCCC2(C)C [Tanshinone IIA],percent Bodipy-positive cells,[1],27.1 ± 17%
same,percent Bodipy-positive cells,[2],54.9 ± 6.6%
same,percent Bodipy-positive cells,library stock concentration: 17 mM,27.2 ± 3.9%
COc1ccc2c(c1)c(CC(=O)N1CCOCC1)c(C)n2C(=O)c1ccc(Cl)cc1,percent Bodipy-positive cells,[3],23.2 ± 15%
same,percent Bodipy-positive cells,[1],8.76 ± 3.2%
same,percent Bodipy-positive cells,[2],22% and 7.66%
CC(C)(C)n1nc(-c2cccc3ccccc23)c2c(N)ncnc21 [1-Naphthyl PP1],percent Bodipy-positive cells,[2],5.01 ± 1.7%
OC(c1cc(C(F)(F)F)nc2c(C(F)(F)F)cccc12)C1CCCCN1 (stereo not drawn) [Mefloquine hydrochloride],percent Bodipy-positive cells,,80.2 ± 7.8%
same,percent Bodipy-positive cells,[2],98.5 ± 0.37%
OC(c1cc(C(F)(F)F)nc2c(C(F)(F)F)cccc12)C1CCCCN1 (stereo not drawn) [Mefloquine HCl],percent Bodipy-positive cells,[1],67.8 ± 8.5%
same,percent Bodipy-positive cells,[2],83.1 ± 6.2%
OC(c1cc(C(F)(F)F)nc2c(C(F)(F)F)cccc12)C1CCCCN1 (stereo not drawn) [Mefloquine],percent Bodipy-positive cells,library stock concentration: 4.8 mM,81.2 ± 2.2%
same,percent Bodipy-positive cells,[2],72.1 ± 11%
